Drawing on PMC6597583, this text covers binding for three substances.

Amino acid sequences for entries named in this document (tags omitted). A change or cut given only in a name is not applied to a line headed by its entry. Chains listed by the source or under a name are the forms on record and can include a tag or linker.
BnCYP18-4 (A0A078DMP0, form named): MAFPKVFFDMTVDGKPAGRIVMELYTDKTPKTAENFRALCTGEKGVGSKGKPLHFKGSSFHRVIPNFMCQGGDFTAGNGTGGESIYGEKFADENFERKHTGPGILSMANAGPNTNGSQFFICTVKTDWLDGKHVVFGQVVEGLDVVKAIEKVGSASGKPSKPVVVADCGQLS
BnCYP18-5 (A0A078IDN6, form named): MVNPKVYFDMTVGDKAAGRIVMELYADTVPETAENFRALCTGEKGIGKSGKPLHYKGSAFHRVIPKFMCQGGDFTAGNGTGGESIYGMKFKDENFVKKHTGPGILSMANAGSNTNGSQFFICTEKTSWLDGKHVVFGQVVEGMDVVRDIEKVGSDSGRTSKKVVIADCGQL
BnCYP19-1 (A0A078GRH6, form named): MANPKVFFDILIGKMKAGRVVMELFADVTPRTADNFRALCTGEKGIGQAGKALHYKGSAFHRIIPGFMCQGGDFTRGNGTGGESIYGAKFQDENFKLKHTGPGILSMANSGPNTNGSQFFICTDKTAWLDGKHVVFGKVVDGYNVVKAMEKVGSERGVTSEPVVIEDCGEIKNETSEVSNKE

Holding throughout (test): dynamic light scattering; protein solution in a quartz cuvette, 660 nm laser, scattering at 90°, CONTIN algorithm, Rh via Stokes-Einstein equation; both purified
The target of assay [1] is BnCYP18-4 (Brassica napus).
Assay [2] concerns the target BnCYP18-5 (Brassica napus).
For assay [3], the target named is BnCYP19-1 (Brassica napus).

These are yes or no findings as the source states them, for the method shown.

Take “BnCYP18-4 (from UniProt A0A078DMP0 1-172) (enzyme)”: the binding entry in assay [1] is reported as “no binding”.
“BnCYP18-5 (from UniProt A0A078IDN6 1-171) (enzyme)”: in assay [2], the binding entry is listed as “no binding”.
For “BnCYP19-1 (from UniProt A0A078GRH6 1-182) (enzyme)”, in assay [3], the binding result is on record as “no binding”.
